# According to PubChem BioAssay AID493014 (National Center for Advancing Translational Sciences (NCATS), 2011):
# The other results are listed elsewhere or left out. The main result of the screen is listed elsewhere. These columns were measured beside it and carry no call. Most of these compounds were active or inconclusive in the main read-out, so they are no random draw. Potencies come from curve fits of mixed quality, noted in brackets.
# Experiment: qHTS Assay to Find Inhibitors of Chronic Active B-Cell Receptor Signaling
# Conditions: ABC-DLBCL IkBa-CBG/CBR reporter, luminescence ratio (green luciferase fused to IkBa over red control in TMD8 lymphoma cells), 4 h
# Outline: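 Concentration-response series (up to 46 uM) were applied to TMD8 dual-reporter cells for 4 h at 37C with doxycycline. Green/red ratio, after filter-overlap correction, defined %Activity; red signal alone was normalised to basal cells and zero luminescence.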
# [1] = measured here: CBR red luminescence, cell number
# [2] = measured here: IkBa-CBG green luminescence
Structure (SMILES),AC50 [1],AC50 [2]
CCCOC(=O)c1c(-c2ccc(OC)cc2)oc2ccc(-c3ccc(OC)nc3)cc12,"2.51 µM [rising, partial curve, poor fit]",
CC(SCc1cc(=O)n2c([nH]c3ccccc32)c1C#N)C(=O)O (configuration not stated),"31.6 µM [falling, single point]","11.2 µM [rising, partial curve, poor fit]"
Cc1ccc(/C(=N/Nc2ncnc3ccccc23)C(=O)O)cc1,"35.5 µM [falling, single point]",
CCCn1c(SCC(=O)Nc2sc(C)c(C)c2C#N)nnc1C(C)C,"11.2 µM [falling, partial curve, poor fit]",
CCOc1ccc(NC(=O)CCC(=O)O)cc1,"14.6 µM [falling, partial curve, poor fit]",
Brc1ccccc1/C=N/Nc1ccc2ccccc2n1,"0.103 µM [falling, full curve]",
Cc1cc(NC(=O)c2ccccc2)ncc1NC(=O)c1ccco1,"29.1 µM [falling, single point]",
Nc1ccc(C(=O)OCc2nc3ccccc3s2)cc1,"3.98 µM [rising, full curve]",
CC(=O)NCCc1nc2ccccc2n1CCOc1ccccc1,"0.562 µM [rising, partial curve, poor fit]",
C[C@@H](C[C@@H](O)[C@H](O)C(C)(C)O)[C@@H]1CC[C@]2(C)C3=CC[C@H]4C(C)(C)C(=O)CC[C@]4(C)[C@H]3CC[C@@]12C,"18.4 µM [rising, single point]",
Cc1ccc(C2(c3ccc(C)cc3)CC2C(=O)Nc2ccc([N+](=O)[O-])cc2O)cc1 (configuration not stated),"1.58 µM [falling, partial curve, poor fit]",
Cc1ccc(Cn2c(C)c3cnn(CC(=O)NCc4ccccn4)c(=O)c3c2C)cc1,"8.91 µM [falling, partial curve]",
Cc1nc2oc3ccccc3c(=O)c2c(=O)n1Cc1ccccc1,"0.184 µM [falling, full curve, poor fit]",
O=C(C1CC1)N1CCc2cc(Br)cc(S(=O)(=O)N3CCN(c4ccccn4)CC3)c21,"0.731 µM [rising, full curve, poor fit]",
CN1CC(=O)N(C)c2nc(Br)n(C)c2C1=O,"11.2 µM [falling, partial curve]",
CCOC(=O)N1CCN(c2nc(C)c3c(n2)CC(C)CC3=O)CC1 (configuration not stated),"5.62 µM [rising, full curve]",
O=C(CSc1nnnn1-c1ccccc1)NC1CCCc2ccccc21 (configuration not stated),"32.6 µM [falling, partial curve, poor fit]",
COc1ccccc1NC(=O)C/C(C)=N/NC(=O)C12CC3CC(CC(C3)C1)C2,"17.8 µM [falling, partial curve, poor fit]",
Cc1cccc(-c2noc(C(C)NC(=O)c3ccco3)n2)c1 (configuration not stated),"31.6 µM [rising, partial curve, poor fit]",
O=C(CSc1nnc(Cc2cccs2)n1-c1ccccc1)Nc1ccc2c(c1)OCCO2,"29.1 µM [falling, single point]",

# A few values from the list:
# AC50 [1], `CCOC(=O)N1CCN(c2nc(C)c3c(n2)CC(C)CC3=O)CC1` (configuration not stated) reads 5.62 µM [rising, full curve]
# AC50 [1], `Cc1cccc(-c2noc(C(C)NC(=O)c3ccco3)n2)c1` (configuration not stated) reads 31.6 µM [rising, partial curve, poor fit]

# (next part)

Structure (SMILES),AC50 [1],AC50 [2]
CC(c1ccccc1)N1C(=O)CC(Sc2ncccc2C(=O)O)C1=O (configuration not stated),"0.82 µM [rising, full curve, poor fit]",
COc1ccc(-c2cc(C(=O)NC(C(=O)O)C(C)C)c(C)o2)cc1OC (configuration not stated),"10 µM [falling, partial curve]",
COC(=O)c1ccccc1NC(=S)NC(=O)c1ccccc1C,"8.91 µM [falling, partial curve, poor fit]",
O=C(CSc1nnc(-c2ccc(Br)cc2)n1C1CCCCC1)N1CCCC1,"0.82 µM [falling, full curve]",
Cc1ccc(NC(=S)NCc2cccs2)cc1,"0.116 µM [falling, full curve, poor fit]",
CCOc1ccc(N2Nc3n[nH]c(N)c3N2)cc1,"2.06 µM [rising, full curve]",
O=C(OCc1ccccc1)c1cccc(-c2nnn(Cc3ccccc3)n2)c1,"25.9 µM [falling, single point]",
CCC(=O)Nc1ccc2oc(-c3cccnc3)nc2c1,"22.4 µM [rising, partial curve, poor fit]",
COc1ccc(C(=S)NCS(=O)(=O)c2ccc(C)cc2)cc1,"29.1 µM [falling, single point]","29.1 µM [falling, single point]"
Nc1[nH]nc2ncc3cc4ccccc4nc3c12,"17.8 µM [falling, single point]",
Cc1nc2sccc2c(=O)n1-c1cccc(Cl)c1,"35.5 µM [rising, partial curve, poor fit]",
COc1ccc(-c2cc(C(=O)N3CCN(c4ccccc4O)CC3)c3ccccc3n2)cc1,"23.1 µM [falling, partial curve, poor fit]",
COc1cc(NC(=O)CNc2cccc(S(=O)(=O)N3CCCC3)c2)cc(OC)c1,"5.62 µM [falling, partial curve, poor fit]",
O=C(NC1CC1)c1ccc(N2CCCCC2)c([N+](=O)[O-])c1,"2 µM [rising, partial curve]",
CCOc1ccc(S(=O)(=O)Nc2ccc3oc(C)c(C(=O)OC(C)C)c3c2)cc1,"12.6 µM [rising, single point]",
Cc1nnc(N/N=C/c2ccccc2F)n1N,"25.1 µM [falling, single point]",
COc1ccc(NC(=O)CSc2ccc(-c3ccco3)nn2)c(OC)c1,"7.94 µM [falling, partial curve]",
COCCCN(C(C)=O)c1nc(-c2ccc(OC)cc2)cs1,"4.47 µM [rising, full curve, poor fit]",
O=C(CCCN1C(=O)/C(=C/c2cccs2)SC1=S)NNC(=O)c1ccncc1,"2.51 µM [falling, full curve, poor fit]",
Cc1ccc(S(=O)(=O)Nc2c(NC3CCCCC3)c3ccccc3oc2=O)c(C)c1,"14.1 µM [falling, partial curve]",
